From US12158464B2, “Methods for modeling disease tissue using three-dimensional tissue systems” (priority 2013, dated 2024)
Part of at least one peptide drawing is inferred or uncertain, most often the ends.

Columns and labels:
hESC-CM biowires (Hes2) = test: Chronic drug exposure of biowires: quantitative RT-PCR of fetal gene program; type: cell-based, human; conditions: 7 days treatment: ISO 100 nM, Et-1 150 nM, AngII 200 nM; vs untreated control
Procedure: (§1) After preculture for 7 days, biowires were randomly transferred to 6-well plates and cultured in StemPro-34 media in the absence or presence of Isoproterenol (100 nM), Angiotensin II (200 nM [17]) or Endothelin-1 (150 nM)(Sigma) for 7 days. This protocol was chosen to replicate the chronic treatment of mice as described. […] Isolated single cells were seeded on Matrigel-coated glass cover slips before cell area and calcium transient measurements were performed.
Quantitative RT-PCR. RT-PCR was performed as previously described. Total RNA was prepared with the High Pure RNA Isolation Kit (Roche) and treated with RNase-free DNase (Roche). RNA was reverse transcribed into cDNA using random hexamers and Oligo (dT) with SuperScript VILO (Invitrogen). RT-qPCR was performed on a LightCycler 480 (Roche) using LightCycler 480 SYBR Green I Master (Roche). Expression levels were normalized to the housekeeping genes TATA box binding protein (TBP) or Glyceraldehyde 3-phosphate dehydrogenase (GAPDH).

[1] = system: Hes2 hESC derived cardiomyocytes; type: cell-based, human; conditions: single cells dissociated at end of 7 days treatment, cardiac troponin T staining
Procedure: as §1

CC[C@H](C)[C@H](NC(=O)[C@H](Cc1ccc(O)cc1)NC(=O)[C@@H](NC(=O)[C@H](CCCNC(=N)N)NC(=O)[C@@H](N)CC(=O)O)C(C)C)C(=O)N[C@@H](Cc1c[nH]cn1)C(=O)N1CCC[C@H]1C(=O)N[C@@H](Cc1ccccc1)C(=O)O [AngII, angiotensin II]
ANF and BNP gene expression (fetal gene program) (hESC-CM biowires (Hes2)): no changes in gene expression
increase in cell size [1]: 38%
